Measured values reported in PMC11187912.
These are yes or no findings as the source states them, for the method shown. In cells and extracts the contact can be indirect. Some binding calls cover weakened binding; strength is not graded here.

Protein sequences, listed by entry. Tags and fused reporters are not part of them. Residues count along the entry.
UniProt Q9NZQ7, residues 19-290: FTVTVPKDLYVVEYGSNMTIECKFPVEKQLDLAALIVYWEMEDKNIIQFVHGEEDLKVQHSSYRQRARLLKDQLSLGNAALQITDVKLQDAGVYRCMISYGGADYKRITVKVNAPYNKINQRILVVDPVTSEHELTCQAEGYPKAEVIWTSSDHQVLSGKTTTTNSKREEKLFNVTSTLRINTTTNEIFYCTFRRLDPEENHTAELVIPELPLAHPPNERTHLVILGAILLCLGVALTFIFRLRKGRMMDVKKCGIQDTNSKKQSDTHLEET

Legend:
[1] = molecular target: FLAG‐PD‐L1 (UniProt Q9NZQ7); experiment: co-IP; FLAG‐PD‐L1 immunoprecipitated, bound USP22 detected by immunoblot; cells and buffer not stated
[2] = molecular target: endogenous PD‐L1 (UniProt Q9NZQ7); experiment: co-IP; Co‐IP of USP22 and endogenous PD‐L1, immunoblot; which protein was precipitated, cells and buffer not stated

binding [1]: binds | binding [2]: binds
B1: ubiquitin‐specific peptidase 22 (USP22) (enzyme, UniProt Q9UPT9 1-525)
chain: MVSRPEPEGEAMDAELAVAPPGCSHLGSFKVDNWKQNLRAIYQCFVWSGTAEARKRKAKSCICHVCGVHLNRLHSCLYCVFFGCFTKKHIHEHAKAKRHNLAIDLMYGGIYCFLCQDYIYDKDMEIIAKEEQRKAWKMQGVGEKFSTWEPTKRELELLKHNPKRRKITSNCTIGLRGLINLGNTCFMNCIVQALTHTPLLRDFFLSDRHRCEMQSPSSCLVCEMSSLFQEFYSGHRSPHIPYKLLHLVWTHARHLAGYEQQDAHEFLIAALDVLHRHCKGDDNGKKANNPNHCNCIIDQIFTGGLQSDVTCQVCHGVSTTIDPFWDISLDLPGSSTPFWPLSPGSEGNVVNGESHVSGTTTLTDCLRRFTRPEHLGSSAKIKCSGCHSYQESTKQLTMKKLPIVACFHLKRFEHSAKLRRKITTYVSFPLELDMTPFMASSKESRMNGQYQQPTDSLNNDNKYSLFAVVNHQGTLESGHYTSFIRQHKDQWFKCDDAIITKASIKDVLDSEGYLLFYHKQFLEYE
